PubChem BioAssay AID602196 | INSERM – 2012
Aim: 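Knock-downs that protect lung cancer cells from cisplatin or sensitise them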. Cells: human A549 lung cancer cells. Reagent: siRNA pair against human genes. Duration: 48 h transfection before cisplatin; time from cisplatin to read-out not stated. Conditions: cisplatin at a dose killing half of control-siRNA cells; exact dose and duration not given. Measurement: 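Cisplatin cell death as a shift from the 50% death seen with control siRNA; siRNAs toxic or growth-blocking alone scored 0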. Direction: two-siRNA summed score (-2 to +2): higher = both siRNAs protect from cisplatin killing; -2 means both sensitise. Hit rule: 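siRNAs harmful alone (LDH or WST-1) get 0; others get +1 for less and -1 for more cisplatin killing; genes are active when the two siRNAs give the same sign, summing to ±2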. Meaning of the calls: active = both siRNAs shift cisplatin killing the same way; inactive = no consistent shift, or siRNA harmful alone.
In all, the deposit lists about 23,000 reagents; shown is an unselected part. 455 of all reagents (2%) count as active. 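Active includes both protection and sensitisation; some change values fall well beyond the stated -50 to +50 range.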 Not all columns of the deposit are shown. Reagent sequences are not shown. Not stated in the record: the amount of reagent.

gene	two-siRNA summed score (-2 to +2)	call
LOC387830	1	inactive
LOC441497	0	inactive
FXYD5	0	inactive
LRWD1	0	inactive
LOC392337	0	inactive
ARPC1A	0	inactive
FBXO34	0	inactive
P2RY8	-1	inactive
LOC392169	0	inactive
NRG3	0	inactive
MGC46336	1	inactive
BPIFB3	0	inactive
PLAAT1	1	inactive
UFD1	0	inactive
LOC442267	0	inactive
FLJ25415	0	inactive

4 entries from above, sorted by “two-siRNA summed score (-2 to +2)”, lowest first.
gene	two-siRNA summed score (-2 to +2)	call
LRWD1	0	inactive
LOC392337	0	inactive
ARPC1A	0	inactive
FBXO34	0	inactive

The listing continues:
gene	two-siRNA summed score (-2 to +2)	call
LOC402059	0	inactive
C10orf53	0	inactive
LGALS13	0	inactive
ZNF570	1	inactive
ADSS1	0	inactive
PRR7	0	inactive
HADHB	0	inactive
MYH7	0	inactive
ANKRD24	0	inactive
AKIP1	0	inactive
GFRA2	-1	inactive
KRTAP22-1	0	inactive
FLJ10824	0	inactive
ISOC1	0	inactive
LOC441540	1	inactive
METTL26	0	inactive
LOC402237	1	inactive
LOC389293	0	inactive
RAD51B	0	inactive
MMP23A	0	inactive
CRADD	0	inactive
NCOR1	-1	inactive
LOC339903	1	inactive
